Values of other authors in patent US20150157714A1, “IMPLEMENTATION OF NON-PATHOGENIC BIOLUMINESCENT BACTERIA AS A SUB-MICRON LIGHT EMITTING SOURCE FOR PHOTO-DYNAMIC THERAPY IN THE LUNGS” (priority 2013, published 2015).

Conditions: absorption spectra wavelengths for photochemical interactions

Spectral Absorption Ranges and Peaks: 510-560 nm
SMILES: CCN(CC)c1ccc2cc3ccc(=[N+](CC)CC)cc-3oc2c1.[Cl-] [Pyronin B]
